Test results taken from publication PMC3511370.

T1: GST-XopJ (X. campestris pv. vesicatoria)
T1 sequence: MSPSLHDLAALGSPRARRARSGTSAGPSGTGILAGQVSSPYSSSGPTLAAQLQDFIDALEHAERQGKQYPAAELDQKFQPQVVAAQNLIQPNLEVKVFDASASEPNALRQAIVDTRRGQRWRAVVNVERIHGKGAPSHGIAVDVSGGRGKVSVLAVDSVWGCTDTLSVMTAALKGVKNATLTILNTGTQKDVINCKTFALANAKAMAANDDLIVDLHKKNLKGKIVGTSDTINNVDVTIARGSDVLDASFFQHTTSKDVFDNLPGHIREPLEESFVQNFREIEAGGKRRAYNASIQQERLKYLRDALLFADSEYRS

T2: GST-XopA (X. campestris pv. vesicatoria) (UniProt B0RX62)
T2 sequence: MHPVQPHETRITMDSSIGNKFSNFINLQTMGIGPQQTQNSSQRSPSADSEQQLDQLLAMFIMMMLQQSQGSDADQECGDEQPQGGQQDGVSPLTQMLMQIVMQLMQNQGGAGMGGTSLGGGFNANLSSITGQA

B1: XopJ-c-Myc (protein, UniProt A0AB38E6N7 1-316)
chain: MSPSLHDLAALGSPRARRARSGTSAGPSGTGILAGQVSSPYSSSGPTLAAQLQDFIDALEHAERQGKQYPAAELDQKFQPQVVAAQNLIQPNLEVKVFDASASEPNALRQAIVDTRRGQRWRAVVNVERIHGKGAPSHGIAVDVSGGRGKVSVLAVDSVWGCTDTLSVMTAALKGVKNATLTILNTGTQKDVINCKTFALANAKAMAANDDLIVDLHKKNLKGKIVGTSDTINNVDVTIARGSDVLDASFFQHTTSKDVFDNLPGHIREPLEESFVQNFREIEAGGKRRAYNASIQQERLKYLRDALLFADSEYRS

Legend:
Test in all cases: pull-down; GST or GST fusion immobilized on glutathione sepharose from E. coli BL21(DE3) lysate, washed twice with PBS; incubated with 600 µl E. coli cell lysate containing the c-Myc-tagged partner for 1 to 2 h at 4°C; washed four times with PBS; eluted with 10 mM reduced glutathione; immunoblot with anti-c-Myc and anti-GST; only the target purified
[1] = molecular target: T1, GST-XopJ (X. campestris pv. vesicatoria)
[2] = molecular target: T2, GST-XopA (X. campestris pv. vesicatoria)
[3] = molecular target: GST-HrcQ (X. campestris pv. vesicatoria)

Molecule	binding [1]	binding [2]	binding [3]
HrcQ-c-Myc (X. campestris pv. vesicatoria)	binds	binds weakly	
B1			binds

Results are given in words; binding and its absence hold for the method and conditions named. Binding seen in cells or lysates may run through a third protein. Binding can be weak; no strength is given. Tags and fused reporters may be left off the sequences shown.
